Assay results reported in paper PMC10352378.
Results are given in words; binding and its absence hold for the method and conditions named. In cells and extracts the contact can be indirect. A yes stands for co-enrichment or nearness to the bait. Other partners may have been found.

Protein sequences, listed by entry. Tags and fused reporters are not part of them.
UniProt Q9Y490: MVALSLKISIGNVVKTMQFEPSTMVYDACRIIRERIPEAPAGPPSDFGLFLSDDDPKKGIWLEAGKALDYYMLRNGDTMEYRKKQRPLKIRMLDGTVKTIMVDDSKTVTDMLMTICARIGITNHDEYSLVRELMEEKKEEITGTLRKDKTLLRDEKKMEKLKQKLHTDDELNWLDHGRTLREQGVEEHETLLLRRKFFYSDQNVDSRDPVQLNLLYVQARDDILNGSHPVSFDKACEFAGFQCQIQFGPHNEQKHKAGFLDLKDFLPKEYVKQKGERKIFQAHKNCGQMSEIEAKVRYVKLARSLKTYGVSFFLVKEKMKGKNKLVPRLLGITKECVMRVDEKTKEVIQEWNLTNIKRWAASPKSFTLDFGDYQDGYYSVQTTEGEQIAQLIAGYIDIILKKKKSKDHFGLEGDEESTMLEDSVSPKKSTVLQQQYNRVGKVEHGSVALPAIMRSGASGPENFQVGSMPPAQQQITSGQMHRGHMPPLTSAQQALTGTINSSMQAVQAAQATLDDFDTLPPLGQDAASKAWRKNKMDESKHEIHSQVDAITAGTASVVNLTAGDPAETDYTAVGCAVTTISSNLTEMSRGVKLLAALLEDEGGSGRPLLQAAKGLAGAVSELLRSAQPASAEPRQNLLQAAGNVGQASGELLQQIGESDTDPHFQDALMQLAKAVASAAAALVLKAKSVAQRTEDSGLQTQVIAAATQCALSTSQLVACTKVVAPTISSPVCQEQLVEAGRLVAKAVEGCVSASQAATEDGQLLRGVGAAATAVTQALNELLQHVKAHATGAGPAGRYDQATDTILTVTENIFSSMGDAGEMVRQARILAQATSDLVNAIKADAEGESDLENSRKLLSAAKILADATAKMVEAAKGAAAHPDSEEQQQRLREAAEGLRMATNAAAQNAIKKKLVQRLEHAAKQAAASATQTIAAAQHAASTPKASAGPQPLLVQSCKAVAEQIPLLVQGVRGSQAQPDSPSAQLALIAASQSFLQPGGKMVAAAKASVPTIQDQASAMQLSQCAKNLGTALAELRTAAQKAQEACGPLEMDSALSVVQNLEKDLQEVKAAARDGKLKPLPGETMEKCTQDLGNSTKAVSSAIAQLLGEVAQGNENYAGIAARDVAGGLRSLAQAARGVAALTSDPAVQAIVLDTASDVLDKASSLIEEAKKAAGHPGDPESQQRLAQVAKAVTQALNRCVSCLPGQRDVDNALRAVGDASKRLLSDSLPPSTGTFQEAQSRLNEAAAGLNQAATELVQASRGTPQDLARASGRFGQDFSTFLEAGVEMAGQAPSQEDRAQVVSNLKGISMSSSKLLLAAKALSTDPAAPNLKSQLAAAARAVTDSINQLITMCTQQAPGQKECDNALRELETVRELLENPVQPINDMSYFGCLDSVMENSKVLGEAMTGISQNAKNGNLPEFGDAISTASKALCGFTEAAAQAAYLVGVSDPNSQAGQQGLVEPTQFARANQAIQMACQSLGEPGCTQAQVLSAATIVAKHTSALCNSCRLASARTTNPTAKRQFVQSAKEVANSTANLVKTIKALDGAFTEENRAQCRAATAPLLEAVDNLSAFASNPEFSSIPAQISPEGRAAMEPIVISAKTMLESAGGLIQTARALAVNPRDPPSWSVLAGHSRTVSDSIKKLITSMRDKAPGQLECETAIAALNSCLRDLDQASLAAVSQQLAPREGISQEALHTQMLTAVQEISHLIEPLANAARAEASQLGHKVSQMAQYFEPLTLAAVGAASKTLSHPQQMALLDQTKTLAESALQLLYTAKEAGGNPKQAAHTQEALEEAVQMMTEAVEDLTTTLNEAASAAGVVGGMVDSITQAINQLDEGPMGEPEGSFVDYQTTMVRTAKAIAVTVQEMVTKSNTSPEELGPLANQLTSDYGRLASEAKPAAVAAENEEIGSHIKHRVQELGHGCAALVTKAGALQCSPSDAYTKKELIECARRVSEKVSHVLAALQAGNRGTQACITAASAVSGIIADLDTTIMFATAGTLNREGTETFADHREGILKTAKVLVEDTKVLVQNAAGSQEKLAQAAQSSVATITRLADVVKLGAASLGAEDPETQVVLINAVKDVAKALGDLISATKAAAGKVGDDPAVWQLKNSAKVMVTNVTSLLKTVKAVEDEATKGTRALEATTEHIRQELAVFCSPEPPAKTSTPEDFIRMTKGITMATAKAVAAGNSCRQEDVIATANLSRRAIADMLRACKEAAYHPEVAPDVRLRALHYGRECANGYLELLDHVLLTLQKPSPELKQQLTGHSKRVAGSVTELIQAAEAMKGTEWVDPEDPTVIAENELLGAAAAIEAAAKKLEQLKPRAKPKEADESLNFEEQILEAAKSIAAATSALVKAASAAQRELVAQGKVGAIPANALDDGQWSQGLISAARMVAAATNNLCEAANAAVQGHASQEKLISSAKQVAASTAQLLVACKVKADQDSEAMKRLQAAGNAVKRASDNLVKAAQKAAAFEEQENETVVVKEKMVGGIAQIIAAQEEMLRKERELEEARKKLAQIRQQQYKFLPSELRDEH
UniProt P19474: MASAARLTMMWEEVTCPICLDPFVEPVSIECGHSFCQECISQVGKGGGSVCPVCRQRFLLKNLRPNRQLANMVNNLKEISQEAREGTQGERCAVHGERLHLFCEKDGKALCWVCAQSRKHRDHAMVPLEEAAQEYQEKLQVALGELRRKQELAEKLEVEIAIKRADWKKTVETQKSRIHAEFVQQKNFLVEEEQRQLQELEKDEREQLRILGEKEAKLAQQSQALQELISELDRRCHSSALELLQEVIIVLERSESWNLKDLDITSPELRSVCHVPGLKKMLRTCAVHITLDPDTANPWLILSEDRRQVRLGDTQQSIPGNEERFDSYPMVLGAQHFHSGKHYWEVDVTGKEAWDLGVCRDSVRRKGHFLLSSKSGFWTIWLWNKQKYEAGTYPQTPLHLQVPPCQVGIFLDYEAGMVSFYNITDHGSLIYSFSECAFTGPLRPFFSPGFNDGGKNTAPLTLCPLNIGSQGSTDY

Molecular target: talin1 (cells and construct not stated) (UniProt Q9Y490)
Test: affinity purification with mass spectrometry; talin1 immunoprecipitations analysed by timsTOF Pro mass spectrometry; cells not given

binding: binds
Substance: TRIM21 (found in talin1 immunoprecipitations by mass spectrometry) (from UniProt P19474 1-475) (enzyme)
